According to PubChem BioAssay AID1487 (National Center for Advancing Translational Sciences (NCATS), 2009):
This is one part of the list. Shown are side measurements of this screen, not its main read-out; they come without a call. The list favours compounds with an active or inconclusive main result. Words in brackets tell the shape of the fitted curve; partial curves, single points and poor fits give uncertain potencies.

Test: qHTS Assay for Modulators of Lamin A Splicing
Settings: HeLa LMNA splicing GFP/RFP minigene ratio, 48 h
Outline: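 Read-out is the ratio of GFP to DsRed2 object intensity, acquired by 488 nm laser-scanning cytometry on HeLa lamin A-EGFP minigene reporter cells. Compound incubation 48 hrs at 37 °C in Opti-MEM with 2% FBS; DMSO 0.5% final.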

[1] = measured here: GFP splicing reporter channel
[2] = measured here: RFP viability control channel

Structure (SMILES): O=C(Nc1nc(-c2ccccc2)cs1)c1cccs1
- AC50 [1]: 10 µM [rising, single point]

Structure (SMILES): COc1ccc(-c2noc(C)c2-c2ccc3ccccc3n2)c(O)c1
- AC50 [1]: 2.24 µM [rising, full curve]
- AC50 [2]: 11.2 µM [rising, partial curve]

Structure (SMILES): CC(=O)Oc1c(C)cc(Cl)cc1C(=O)Nc1ccc([N+](=O)[O-])cc1Cl
- AC50 [1]: 0.158 µM [rising, full curve, poor fit]
- AC50 [2]: 0.251 µM [rising, full curve]

Structure (SMILES): Cc1nn(-c2ccc(F)cc2)c2sc(C(=O)O)cc12
- AC50 [2]: 35.5 µM [rising, single point]

Structure (SMILES): COc1ccccc1NC(=O)c1ccc(NS(=O)(=O)c2ccc(F)c(Cl)c2)cc1
- AC50 [2]: 35.5 µM [rising, single point]

Structure (SMILES): Cc1ccc(N2C(=O)N(CC(=O)c3cc(C)ccc3C)C(=O)C2C)cc1 (centres undefined)
- AC50 [2]: 6.31 µM [rising, partial curve]

Structure (SMILES): CCOCCCNS(=O)(=O)c1ccc(NC(=O)c2ccccc2)cc1
- AC50 [1]: 0.2 µM [rising, partial curve]
- AC50 [2]: 11.2 µM [rising, partial curve]

Structure (SMILES): CCOC(=O)N1CCN(CC(=O)Nc2ccc(Oc3ccccc3)cc2)CC1
- AC50 [2]: 17.8 µM [rising, single point]

Structure (SMILES): CCOc1cc(C(=O)OCC(=O)NC(C)c2ccccc2)ccc1OCC(=O)N1CCOCC1 (centres undefined)
- AC50 [2]: 0.00316 µM [rising, full curve, poor fit]

Structure (SMILES): C=CCc1ccc(OCC(O)CN2CCN(Cc3ccc(Cl)cc3)CC2)c(OC)c1 (centres undefined)
- AC50 [1]: 11.2 µM [rising, partial curve]
- AC50 [2]: 35.5 µM [rising, single point]

Structure (SMILES): COC(=O)[C@@H]1CC[C@H](C)[C@@H](c2ccc(C)cc2)N1C(=O)c1ccc(/C=N/O[C@@H](C)c2cn([C@H](CO)Cc3ccccc3)nn2)cc1
- AC50 [1]: 2.51 µM [falling, partial curve]
- AC50 [2]: 35.5 µM [rising, single point]

Structure (SMILES): COc1ccccc1C(=O)Nc1nnn(C)n1
- AC50 [1]: 5.62 µM [falling, single point]

Structure (SMILES): Cc1cc(C)n(-c2nc(SCCN(C)C)c3c4c(sc3n2)CCCC4)n1
- AC50 [1]: 35.5 µM [falling, single point]

Structure (SMILES): O=C(CCCOc1ccc(Cl)cc1Cl)NCCCn1ccnc1
- AC50 [2]: 31.6 µM [rising, single point]

Structure (SMILES): COc1ccc(Cl)cc1NC(=S)NCc1ccc(S(N)(=O)=O)cc1
- AC50 [2]: 0.631 µM [rising, full curve, poor fit]

Structure (SMILES): CO/N=C/c1ccc(N2CCCC2)c([N+](=O)[O-])c1
- AC50 [2]: 0.0224 µM [falling, full curve, poor fit]

Structure (SMILES): CCCNC(=O)CN1CCN(c2ccc(NC(=O)c3ccc(OC)cc3)cc2C(=O)O)CC1
- AC50 [1]: 0.0398 µM [falling, full curve, poor fit]
- AC50 [2]: 0.0891 µM [falling, full curve, poor fit]

Structure (SMILES): Cc1onc(-c2c(F)cccc2Cl)c1C(=O)NCCc1ccc(S(N)(=O)=O)cc1
- AC50 [1]: 0.891 µM [rising, full curve, poor fit]

Structure (SMILES): O=C(CSCc1ccc(Cl)cc1)N/N=C/c1ccco1
- AC50 [1]: 25.1 µM [rising, partial curve, poor fit]
- AC50 [2]: 35.5 µM [rising, partial curve, poor fit]

Structure (SMILES): O=S(=O)(c1ccc(NC(=S)NCCc2ccccc2)cc1)N1CCOCC1
- AC50 [1]: 0.794 µM [rising, partial curve, poor fit]
- AC50 [2]: 0.501 µM [rising, partial curve]

Structure (SMILES): COc1ccc(/C=N/NC(=O)CN(Cc2ccccc2)S(=O)(=O)c2ccc3c(c2)OCCO3)cc1
- AC50 [2]: 31.6 µM [rising, single point]

Structure (SMILES): CC(C)CNC(=O)COC(=O)c1c2c(nc3ccccc13)/C(=C/c1cccs1)CC2
- AC50 [2]: 2.51 µM [rising, partial curve]

Structure (SMILES): COC(=O)CC1c2ccccc2C=C(/C=C/c2ccc3c(c2)OCO3)N1C(=O)OC (centres undefined)
- AC50 [1]: 0.00355 µM [rising, full curve, poor fit]
- AC50 [2]: 0.00251 µM [rising, full curve, poor fit]

Structure (SMILES): O=C(CCc1nnc(CCCCc2ccccc2)o1)NCCN1CCOC1=O
- AC50 [1]: 35.5 µM [falling, single point]
- AC50 [2]: 35.5 µM [falling, single point]

Structure (SMILES): CCSC(N)=Nc1ccc(C(F)(F)F)cc1
- AC50 [2]: 0.02 µM [rising, full curve, poor fit]

Structure (SMILES): COc1ccccc1CNc1ncnc2c1cnn2-c1ccc(C)cc1
- AC50 [2]: 15.8 µM [rising, single point]

Structure (SMILES): O=C1NC(=S)/C(=C\c2ccc(-c3ccccc3Cl)o2)S1
- AC50 [1]: 35.5 µM [falling, single point]

Structure (SMILES): COc1ccccc1C(=O)N1c2ccccc2Sc2ccccc21
- AC50 [1]: 22.4 µM [rising, single point]
- AC50 [2]: 35.5 µM [rising, single point]

Structure (SMILES): Cc1ccc(-n2nc(C)c3c(C)cc(=O)n(CC(=O)Nc4cccc(C)c4C)c32)cc1
- AC50 [1]: 5.01 µM [rising, partial curve]

Structure (SMILES): Cn1c(Cn2c(=O)sc3ccccc32)nnc1SCc1ccccc1
- AC50 [1]: 31.6 µM [rising, single point]
- AC50 [2]: 35.5 µM [rising, single point]

Structure (SMILES): CC[C@@H]1Cc2cc(O)ccc2C2=C1c1ccc(O)cc1C[C@H]2CC
- AC50 [1]: 20 µM [falling, partial curve]
- AC50 [2]: 20 µM [falling, partial curve, poor fit]

Structure (SMILES): CCCS(=O)(=O)c1c(S(=O)(=O)CCC)c2c(N)cccn2c1C(=O)c1ccc(OC)cc1
- AC50 [1]: 0.562 µM [falling, full curve, poor fit]
- AC50 [2]: 0.0316 µM [falling, full curve, poor fit]

Structure (SMILES): CCN(CC)S(=O)(=O)c1ccc(N2CCN(S(=O)(=O)c3ccc4c(c3)OCCO4)CC2)nc1
- AC50 [2]: 14.1 µM [rising, single point]

Structure (SMILES): Cc1ccc(OCC(=O)Nn2c(C)nc3ccccc3c2=O)c(C(C)C)c1
- AC50 [1]: 2.82 µM [rising, full curve]
- AC50 [2]: 7.08 µM [rising, partial curve]
